For the experiment, the target named is T1, TRIM26 WT, in vitro translated (not stated (the printed accession is the human entry)) (UniProt Q12899).
T1 sequence: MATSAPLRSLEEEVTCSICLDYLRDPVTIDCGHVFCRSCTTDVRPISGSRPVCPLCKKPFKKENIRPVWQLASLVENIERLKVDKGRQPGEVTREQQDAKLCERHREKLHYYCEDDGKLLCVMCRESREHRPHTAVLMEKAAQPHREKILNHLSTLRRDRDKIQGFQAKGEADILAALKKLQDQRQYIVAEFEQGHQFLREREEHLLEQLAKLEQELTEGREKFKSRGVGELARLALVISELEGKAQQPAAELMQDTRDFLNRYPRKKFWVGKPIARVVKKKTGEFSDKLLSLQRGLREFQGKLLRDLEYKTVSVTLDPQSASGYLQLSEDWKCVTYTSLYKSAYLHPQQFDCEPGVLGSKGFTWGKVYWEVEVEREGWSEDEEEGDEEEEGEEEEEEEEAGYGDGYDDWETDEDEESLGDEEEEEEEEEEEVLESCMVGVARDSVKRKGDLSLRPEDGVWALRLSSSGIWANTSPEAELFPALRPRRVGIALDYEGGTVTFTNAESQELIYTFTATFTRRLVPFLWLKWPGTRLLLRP
Nature of the experiment: co-IP; in vitro binding: in vitro translated WT TRIM26 and WT IRF3 mixed together, IP with TRIM26 antibody, western blot with IRF3 antibody. On the technique in general: In western blotting, separated proteins are transferred to a membrane and probed.

This is an account of results in paper PMC4357427.

These are yes or no findings as the source states them, for the method shown. Binding seen in cells or lysates may run through a third protein. Some results given as binding are weak or reduced against the parent protein; the word gives no strength.

B1: IRF3 WT, in vitro translated (protein, UniProt Q14653 1-427)
chain: MGTPKPRILPWLVSQLDLGQLEGVAWVNKSRTRFRIPWKHGLRQDAQQEDFGIFQAWAEATGAYVPGRDKPDLPTWKRNFRSALNRKEGLRLAEDRSKDPHDPHKIYEFVNSGVGDFSQPDTSPDTNGGGSTSDTQEDILDELLGNMVLAPLPDPGPPSLAVAPEPCPQPLRSPSLDNPTPFPNLGPSENPLKRLLVPGEEWEFEVTAFYRGRQVFQQTISCPEGLRLVGSEVGDRTLPGWPVTLPDPGMSLTDRGVMSYVRHVLSCLGGGLALWRAGQWLWAQRLGHCHTYWAVSEELLPNSGHGPDGEVPKDKEGGVFDLGPFIVDLITFTEGSGRSPRYALWFCVGESWPQDQPWTKRLVMVKVVPTCLRALVEMARVGGASSLENTVDLHISNSHPLSLTSDQYKAYLQDLVEGMDFQGPGES
Turning to B1, the binding entry is recorded as “binds”.
